Reference: PubChem BioAssay AID743255 (National Center for Advancing Translational Sciences (NCATS), 2014)
Values joined by “and” are separate entries in the source; they are usually repeats but may differ in a detail not shown here. Equal entries are not always repeated. About 910 (0.23%) of roughly 390,000 compounds were called active. The shares of active, inactive and inconclusive entries below differ from those in the screen. The call rests on the fitted dose curve; in most records, active means well fitted inhibition curve with a large enough effect; inconclusive means small, poorly fitted or top-dose-only effect; inactive means no such curve, though single readings can be large or run the other way. A potency beside an inconclusive call is a rough fit, not a confirmed value.

The chains behind the UniProt entries cited, without tags or fusion partners. Where a name states a change or a piece, a line headed by the entry shows the natural chain unless it says otherwise.
UniProt O94782: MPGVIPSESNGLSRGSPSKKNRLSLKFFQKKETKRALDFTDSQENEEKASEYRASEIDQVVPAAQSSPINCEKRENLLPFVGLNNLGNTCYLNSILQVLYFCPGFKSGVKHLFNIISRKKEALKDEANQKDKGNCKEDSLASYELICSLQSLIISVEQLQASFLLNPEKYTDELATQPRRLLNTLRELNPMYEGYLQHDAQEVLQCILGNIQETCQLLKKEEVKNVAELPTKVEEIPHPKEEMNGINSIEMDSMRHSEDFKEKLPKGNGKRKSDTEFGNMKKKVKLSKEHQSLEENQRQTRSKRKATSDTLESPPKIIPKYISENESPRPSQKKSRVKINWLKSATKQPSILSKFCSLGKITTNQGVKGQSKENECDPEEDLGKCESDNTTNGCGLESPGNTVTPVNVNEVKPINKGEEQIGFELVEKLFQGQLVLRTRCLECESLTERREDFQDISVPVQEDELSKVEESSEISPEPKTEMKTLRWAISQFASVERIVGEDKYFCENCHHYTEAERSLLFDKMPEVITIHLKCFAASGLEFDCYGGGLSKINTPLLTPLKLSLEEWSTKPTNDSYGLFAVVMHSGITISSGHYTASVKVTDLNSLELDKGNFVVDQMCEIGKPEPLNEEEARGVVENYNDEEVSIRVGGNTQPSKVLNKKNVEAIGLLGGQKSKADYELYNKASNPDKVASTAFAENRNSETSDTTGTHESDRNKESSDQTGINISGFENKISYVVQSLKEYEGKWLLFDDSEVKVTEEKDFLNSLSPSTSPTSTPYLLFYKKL

Each molecule was assayed against Ubiquitin carboxyl-terminal hydrolase 1 (Homo sapiens) (UniProt O94782) (assay: Inhibitors of USP1/UAF1: Primary Screen). Conditions: recombinant USP1/UAF1, Ub-Rhodamine cleavage fluorescence; activity change, negative = inhibition: at 57.1 µM (top of the series).
In short: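 1 nM enzyme complex + cpd, 15 min RT; start with Ub-Rho 150nM final; kinetic fluorescence ex 480/em 540, 6 reads q60 s. Buffer 50mM HEPES pH 7.8, 0.5mM EDTA, 0.1 mg/ml BSA, 1mM TCEP, 0.01% Tween-20.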
Further: nearly all actives have a fitted effect of over 60% in size.
On the % scale 0 is the no-effect control and ±100 the full control effect; potency means the concentration at half of the fitted maximal effect.

Potency, inconclusive:
O=C(N/N=C/c1ccncc1)c1sc2ccccc2c1Cl 70.8 µM [inhibitor, partial curve, poor fit], NC(=O)c1c(NC(=O)CSc2nnc(Cc3ccccc3)n2Cc2ccco2)sc2c1CCC2 35.5 µM [inhibitor, single point], Cc1ccc([N+](=O)[O-])cc1NC(=O)C(C)Sc1nnc(C)n1CC1CCCO1 (stereo not drawn) 3.55 µM [inhibitor, partial curve], CCOC(=O)c1c(C)c(-c2ccccc2)n(CC(=O)NCCc2ccc(C)cc2)c1C 3.98 µM [inhibitor, full curve, poor fit], Cc1csc(NC(=O)Cc2coc3cc(C)c(C(C)C)cc23)n1 31.6 µM [inhibitor, partial curve], Cc1ccc(-c2c3c(=O)n(C)c(=O)n(C)c3c3c(C(F)(F)F)nc4ccccc4n23)cc1 35.5 µM [inhibitor, single point], CCCCOc1ccc(C(=O)OCC(=O)N2CCCCCC2)cc1 6.31 µM [inhibitor, full curve], Cc1cc(O)cc2c1C(=O)/C(=C/c1ccco1)O2 44.7 µM [inhibitor, partial curve, poor fit], O=C1NCC(O)=C1C=NC12CC3CC(CC(C3)C1)C2 794 nM [inhibitor, full curve, poor fit] and 1.41 µM [inhibitor, partial curve], CC(=O)n1cc([C@H]2C=C(C(=O)Nc3ccccc3)O[C@@H](OCc3ccc(CO)cc3)C2)c2ccccc21 0.631 µM [inhibitor, full curve, poor fit], O=C(Cn1c(=O)n(Cc2ccccc2)c(=O)c2oc3ccccc3c21)Nc1ccc(Cl)cc1 7.08 µM [inhibitor, partial curve, poor fit], O=C(NC(=S)Nc1ccccc1N1CCCC1)c1cccc(F)c1 5.01 µM [inhibitor, full curve]

Potency, active:
O=C(/C=C/c1ccc(N2CCOCC2)cc1)c1ccccc1 25.1 µM

Activity change, negative = inhibition, inactive:
O=[N+]([O-])c1ccc(Cl)c(/C=N/N2CCN(c3ccccc3)CC2)c1 -5.82%, CCCCc1ccc(NC(=O)COc2cccc3c(=O)n(C)ccc23)cc1 -22.5%, Oc1ccc(/C=N/Nc2nccnc2Cl)c(O)c1 -11.6%, O=C(NCC1(c2ccccc2)CCCC1)c1ccccc1Br -15.2%, CC(C)(C)Nc1nc(SCC(=O)Nc2ccccc2)nc(N2CCOCC2)n1 -15.9%
